Experimental data: the supplement of paper PMC6411743
± gives the standard deviation of the averaged measurements. The list shows a part of the results, in another mix than the full data.

Amino acid sequences for entries named in this document (tags omitted). A change or cut given only in a name is not applied to a line headed by its entry.
UniProt Q9H981, whole entry: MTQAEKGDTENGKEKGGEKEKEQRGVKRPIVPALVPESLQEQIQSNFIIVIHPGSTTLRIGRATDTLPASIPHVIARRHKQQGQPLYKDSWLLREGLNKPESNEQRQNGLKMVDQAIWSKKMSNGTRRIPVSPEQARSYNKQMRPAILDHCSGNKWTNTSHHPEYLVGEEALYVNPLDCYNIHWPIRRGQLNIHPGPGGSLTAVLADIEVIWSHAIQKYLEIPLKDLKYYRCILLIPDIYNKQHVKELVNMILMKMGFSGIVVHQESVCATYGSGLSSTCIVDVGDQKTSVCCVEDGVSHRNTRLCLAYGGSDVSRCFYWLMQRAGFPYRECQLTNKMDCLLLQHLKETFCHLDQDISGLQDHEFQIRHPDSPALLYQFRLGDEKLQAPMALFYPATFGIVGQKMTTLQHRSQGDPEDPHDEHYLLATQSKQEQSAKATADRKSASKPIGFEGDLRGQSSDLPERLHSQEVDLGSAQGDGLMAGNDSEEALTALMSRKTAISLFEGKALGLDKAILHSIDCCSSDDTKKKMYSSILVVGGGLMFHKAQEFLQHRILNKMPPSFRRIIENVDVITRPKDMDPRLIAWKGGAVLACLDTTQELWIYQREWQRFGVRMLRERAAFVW
UniProt Q9H8P0: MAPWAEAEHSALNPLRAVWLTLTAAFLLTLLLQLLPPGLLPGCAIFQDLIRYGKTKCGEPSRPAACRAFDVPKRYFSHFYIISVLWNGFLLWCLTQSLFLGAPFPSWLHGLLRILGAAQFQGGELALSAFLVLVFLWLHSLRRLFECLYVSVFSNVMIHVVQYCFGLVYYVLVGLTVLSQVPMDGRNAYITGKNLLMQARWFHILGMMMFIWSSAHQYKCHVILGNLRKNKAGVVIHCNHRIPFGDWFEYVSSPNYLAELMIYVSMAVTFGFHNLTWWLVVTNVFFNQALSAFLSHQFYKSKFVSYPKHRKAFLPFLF
UniProt Q9HB90, whole entry: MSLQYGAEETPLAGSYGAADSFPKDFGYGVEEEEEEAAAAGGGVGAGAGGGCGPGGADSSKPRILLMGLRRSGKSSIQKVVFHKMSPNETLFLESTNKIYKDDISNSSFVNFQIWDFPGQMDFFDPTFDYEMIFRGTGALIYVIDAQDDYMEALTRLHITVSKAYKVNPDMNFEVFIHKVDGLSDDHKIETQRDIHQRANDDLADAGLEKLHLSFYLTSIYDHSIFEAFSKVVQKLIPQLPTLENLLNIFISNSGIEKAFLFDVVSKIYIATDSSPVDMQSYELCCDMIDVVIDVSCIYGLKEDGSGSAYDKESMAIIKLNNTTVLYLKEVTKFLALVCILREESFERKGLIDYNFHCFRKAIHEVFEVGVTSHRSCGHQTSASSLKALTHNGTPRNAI
UniProt Q9H3K2: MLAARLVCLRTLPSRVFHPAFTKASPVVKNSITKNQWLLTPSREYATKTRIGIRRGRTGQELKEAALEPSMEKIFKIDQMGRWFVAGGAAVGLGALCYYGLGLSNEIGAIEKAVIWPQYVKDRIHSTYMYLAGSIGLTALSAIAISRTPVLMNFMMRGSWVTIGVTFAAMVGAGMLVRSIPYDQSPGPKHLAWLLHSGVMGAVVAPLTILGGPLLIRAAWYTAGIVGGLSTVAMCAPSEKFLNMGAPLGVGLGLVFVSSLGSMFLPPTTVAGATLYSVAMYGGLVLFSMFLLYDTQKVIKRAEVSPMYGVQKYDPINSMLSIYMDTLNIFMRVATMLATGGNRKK
UniProt Q9NP77: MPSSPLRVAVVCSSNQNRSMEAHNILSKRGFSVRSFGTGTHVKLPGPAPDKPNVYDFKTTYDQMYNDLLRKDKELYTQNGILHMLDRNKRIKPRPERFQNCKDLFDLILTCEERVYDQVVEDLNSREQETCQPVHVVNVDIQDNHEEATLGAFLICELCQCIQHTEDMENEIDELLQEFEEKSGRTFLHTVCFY
UniProt Q9H2K8: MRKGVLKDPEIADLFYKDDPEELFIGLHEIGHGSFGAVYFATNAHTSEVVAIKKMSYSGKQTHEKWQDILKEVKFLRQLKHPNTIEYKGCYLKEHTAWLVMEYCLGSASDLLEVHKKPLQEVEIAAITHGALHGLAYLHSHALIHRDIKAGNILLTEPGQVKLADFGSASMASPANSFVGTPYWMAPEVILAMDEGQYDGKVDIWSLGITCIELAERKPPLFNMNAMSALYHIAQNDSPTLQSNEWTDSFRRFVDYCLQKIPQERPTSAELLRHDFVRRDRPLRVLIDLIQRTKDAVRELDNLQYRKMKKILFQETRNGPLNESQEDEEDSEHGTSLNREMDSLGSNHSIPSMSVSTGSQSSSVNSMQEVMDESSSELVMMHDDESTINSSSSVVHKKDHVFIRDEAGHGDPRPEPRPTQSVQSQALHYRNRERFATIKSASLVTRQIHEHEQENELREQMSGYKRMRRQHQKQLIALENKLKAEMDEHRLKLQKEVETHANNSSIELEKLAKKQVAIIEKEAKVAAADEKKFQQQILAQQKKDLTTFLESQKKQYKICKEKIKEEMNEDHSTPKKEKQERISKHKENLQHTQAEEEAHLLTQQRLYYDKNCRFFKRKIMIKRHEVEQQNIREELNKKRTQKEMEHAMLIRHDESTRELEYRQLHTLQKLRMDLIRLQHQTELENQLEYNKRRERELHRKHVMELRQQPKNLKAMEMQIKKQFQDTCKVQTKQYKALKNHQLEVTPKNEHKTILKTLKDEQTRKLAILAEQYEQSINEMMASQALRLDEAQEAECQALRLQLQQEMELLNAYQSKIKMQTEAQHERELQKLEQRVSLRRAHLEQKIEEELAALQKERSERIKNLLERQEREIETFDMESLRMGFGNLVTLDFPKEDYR
UniProt Q9H9B1: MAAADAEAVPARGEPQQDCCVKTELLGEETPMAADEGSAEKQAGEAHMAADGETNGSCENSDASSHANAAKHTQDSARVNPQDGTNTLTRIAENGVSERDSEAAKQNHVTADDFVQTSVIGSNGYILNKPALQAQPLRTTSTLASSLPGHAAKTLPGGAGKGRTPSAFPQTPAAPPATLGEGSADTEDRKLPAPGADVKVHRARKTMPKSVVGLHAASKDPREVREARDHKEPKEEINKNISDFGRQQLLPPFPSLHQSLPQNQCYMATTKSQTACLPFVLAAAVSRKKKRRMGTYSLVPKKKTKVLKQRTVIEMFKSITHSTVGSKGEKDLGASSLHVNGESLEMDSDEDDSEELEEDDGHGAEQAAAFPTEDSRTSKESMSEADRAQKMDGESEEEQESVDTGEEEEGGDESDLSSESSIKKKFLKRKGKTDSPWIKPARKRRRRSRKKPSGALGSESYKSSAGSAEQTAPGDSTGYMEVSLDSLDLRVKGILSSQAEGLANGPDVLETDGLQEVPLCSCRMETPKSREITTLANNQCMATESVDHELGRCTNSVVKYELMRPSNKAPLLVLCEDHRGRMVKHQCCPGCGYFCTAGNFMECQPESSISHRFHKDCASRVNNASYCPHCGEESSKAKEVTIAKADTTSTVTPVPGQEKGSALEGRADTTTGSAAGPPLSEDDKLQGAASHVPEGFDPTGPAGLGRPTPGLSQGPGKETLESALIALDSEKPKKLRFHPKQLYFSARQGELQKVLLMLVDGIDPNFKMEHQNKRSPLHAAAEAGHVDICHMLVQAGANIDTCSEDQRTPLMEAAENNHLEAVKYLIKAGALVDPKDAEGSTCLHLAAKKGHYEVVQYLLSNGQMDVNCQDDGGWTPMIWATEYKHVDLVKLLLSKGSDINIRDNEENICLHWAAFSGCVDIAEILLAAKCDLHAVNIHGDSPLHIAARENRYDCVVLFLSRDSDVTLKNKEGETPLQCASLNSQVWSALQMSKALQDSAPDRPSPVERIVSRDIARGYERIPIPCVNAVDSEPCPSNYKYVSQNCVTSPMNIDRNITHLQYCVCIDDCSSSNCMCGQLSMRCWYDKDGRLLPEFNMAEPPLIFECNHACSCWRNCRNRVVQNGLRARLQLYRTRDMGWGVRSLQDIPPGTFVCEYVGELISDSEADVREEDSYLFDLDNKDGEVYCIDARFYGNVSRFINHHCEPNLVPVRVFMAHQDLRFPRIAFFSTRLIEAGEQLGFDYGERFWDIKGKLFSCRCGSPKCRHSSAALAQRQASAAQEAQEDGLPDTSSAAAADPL
UniProt Q9H3Z4: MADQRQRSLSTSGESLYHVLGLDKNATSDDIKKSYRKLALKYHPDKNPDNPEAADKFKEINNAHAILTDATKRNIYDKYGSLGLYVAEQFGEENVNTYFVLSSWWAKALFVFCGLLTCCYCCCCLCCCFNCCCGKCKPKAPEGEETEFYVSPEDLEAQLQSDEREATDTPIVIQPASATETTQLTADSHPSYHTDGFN
UniProt Q9NP50: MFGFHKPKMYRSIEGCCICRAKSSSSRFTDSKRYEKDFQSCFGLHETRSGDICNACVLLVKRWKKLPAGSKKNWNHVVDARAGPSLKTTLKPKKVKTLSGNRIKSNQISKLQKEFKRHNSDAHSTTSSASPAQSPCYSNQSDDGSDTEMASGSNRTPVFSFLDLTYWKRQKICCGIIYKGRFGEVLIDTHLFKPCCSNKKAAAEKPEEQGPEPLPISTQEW
UniProt Q9H477: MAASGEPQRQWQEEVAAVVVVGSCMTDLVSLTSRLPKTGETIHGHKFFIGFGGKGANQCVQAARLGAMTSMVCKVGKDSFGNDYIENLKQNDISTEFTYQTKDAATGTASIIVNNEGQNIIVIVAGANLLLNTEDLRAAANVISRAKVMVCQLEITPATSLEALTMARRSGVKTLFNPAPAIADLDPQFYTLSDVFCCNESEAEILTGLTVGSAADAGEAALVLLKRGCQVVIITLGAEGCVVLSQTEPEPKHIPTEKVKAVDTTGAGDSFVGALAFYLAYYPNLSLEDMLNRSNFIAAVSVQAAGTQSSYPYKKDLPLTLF
UniProt Q9H944: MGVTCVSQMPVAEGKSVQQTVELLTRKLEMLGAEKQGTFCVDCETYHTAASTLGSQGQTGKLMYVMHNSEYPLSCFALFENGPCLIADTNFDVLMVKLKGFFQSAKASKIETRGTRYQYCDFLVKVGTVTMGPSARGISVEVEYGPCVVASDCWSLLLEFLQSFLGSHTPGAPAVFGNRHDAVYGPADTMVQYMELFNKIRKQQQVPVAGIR
UniProt Q9H269: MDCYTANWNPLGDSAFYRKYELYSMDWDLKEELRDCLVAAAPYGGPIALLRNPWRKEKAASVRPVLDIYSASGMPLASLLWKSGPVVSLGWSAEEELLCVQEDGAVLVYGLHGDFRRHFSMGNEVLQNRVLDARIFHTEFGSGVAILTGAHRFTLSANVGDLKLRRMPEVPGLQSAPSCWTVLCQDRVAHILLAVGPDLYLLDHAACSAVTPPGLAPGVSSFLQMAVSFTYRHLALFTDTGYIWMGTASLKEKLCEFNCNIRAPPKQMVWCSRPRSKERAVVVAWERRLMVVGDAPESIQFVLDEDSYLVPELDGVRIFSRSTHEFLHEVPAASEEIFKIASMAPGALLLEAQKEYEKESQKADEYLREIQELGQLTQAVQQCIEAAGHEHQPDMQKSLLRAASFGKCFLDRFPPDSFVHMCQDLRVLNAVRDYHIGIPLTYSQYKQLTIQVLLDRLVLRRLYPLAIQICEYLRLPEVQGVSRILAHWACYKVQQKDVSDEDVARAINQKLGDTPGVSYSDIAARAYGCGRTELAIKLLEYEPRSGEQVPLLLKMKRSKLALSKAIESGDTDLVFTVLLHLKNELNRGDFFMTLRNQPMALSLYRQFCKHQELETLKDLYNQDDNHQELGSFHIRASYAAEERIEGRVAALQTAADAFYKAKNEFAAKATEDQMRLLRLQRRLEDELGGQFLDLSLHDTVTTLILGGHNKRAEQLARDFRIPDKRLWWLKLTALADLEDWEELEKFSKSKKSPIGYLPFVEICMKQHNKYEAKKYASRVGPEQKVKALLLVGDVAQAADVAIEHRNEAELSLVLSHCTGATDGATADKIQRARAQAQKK
UniProt Q9H0A8, whole entry: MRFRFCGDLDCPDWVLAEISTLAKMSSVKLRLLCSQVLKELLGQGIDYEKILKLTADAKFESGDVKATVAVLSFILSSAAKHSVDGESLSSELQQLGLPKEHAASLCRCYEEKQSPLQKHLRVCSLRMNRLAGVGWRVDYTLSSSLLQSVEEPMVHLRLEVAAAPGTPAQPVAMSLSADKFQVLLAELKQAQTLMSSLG
UniProt Q9H857: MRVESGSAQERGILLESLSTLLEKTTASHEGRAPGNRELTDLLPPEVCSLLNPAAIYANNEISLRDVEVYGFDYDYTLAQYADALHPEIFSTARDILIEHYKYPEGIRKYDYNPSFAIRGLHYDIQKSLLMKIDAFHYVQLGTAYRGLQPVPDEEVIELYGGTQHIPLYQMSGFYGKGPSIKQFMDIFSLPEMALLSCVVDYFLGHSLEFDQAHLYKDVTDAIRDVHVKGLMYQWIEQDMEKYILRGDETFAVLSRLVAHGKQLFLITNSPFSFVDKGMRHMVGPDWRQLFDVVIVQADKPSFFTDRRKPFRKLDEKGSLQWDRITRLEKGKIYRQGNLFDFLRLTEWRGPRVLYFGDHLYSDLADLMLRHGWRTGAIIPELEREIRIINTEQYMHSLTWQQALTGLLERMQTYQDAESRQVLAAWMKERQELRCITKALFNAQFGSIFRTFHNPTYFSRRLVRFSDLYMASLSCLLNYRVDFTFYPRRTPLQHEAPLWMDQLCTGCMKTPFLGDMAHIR

Compound: Nc1ncnc2c1ncn2[C@@H]1O[C@H](COP(=O)(O)OP(=O)(O)OP(=O)(O)O)[C@@H](O)[C@H]1O [adenosine triphosphate]
Assay: NP40-soluble protein abundance relative to vehicle (solubility fold change) (ratio); higher = more soluble protein in presence of ATP
In short: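 Across three independent experiments, values are fold changes against the detergent-processed vehicle for each replicate, based on vsn-normalised intensities. The samples were Jurkat crude lysate treated with eight concentrations (0.1 to 10 mM) for 10 min at room temperature and then 3 min at 37 °C. Lysate was solubilised with 0.8% NP40 and benzonase, ultracentrifuged, and the supernatant analysed by TMT-labelled LC-MS/MS.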

Target	NP40-soluble protein abundance (concentration: 1mM)	NP40-soluble protein abundance (concentration: 2mM)	NP40-soluble protein abundance (concentration: 4mM)	NP40-soluble protein abundance (concentration: 6mM)	NP40-soluble protein abundance (concentration: 8mM)	NP40-soluble protein abundance (concentration: 10mM)
ACTR8 (UniProt Q9H981)	1.12 ± 0.038	1.15 ± 0.07	1.19 ± 0.068	1.19 ± 0.06	1.23 ± 0.096	1.25 ± 0.11
CHD8 (UniProt Q9HCK8)	0.995 ± 0.0062	0.989 ± 0.029	0.978 ± 0.013	0.979 ± 0.027	0.9871 ± 0.0037	0.989 ± 0.033
UniProt Q9H8P0 and related entries	1.05 ± 0.12	1.04 ± 0.13	1.06 ± 0.019	0.927 ± 0.065	1.06 ± 0.074	1.024 ± 0.0021
PLEKHA1 (UniProt Q9HB21)	0.99 ± 0.043	1 ± 0.024	1 ± 0.042	1.01 ± 0.09	0.963 ± 0.024	0.994 ± 0.019
RRAGC (UniProt Q9HB90)	1.09 ± 0.13	1.06 ± 0.15	1.05 ± 0.077	1.04 ± 0.094	1.02 ± 0.092	1.05 ± 0.055
GHITM (UniProt Q9H3K2)	0.944 ± 0.076	0.875 ± 0.084	0.859 ± 0.08	0.864 ± 0.2	0.899 ± 0.064	0.882 ± 0.056
SSU72 (UniProt Q9NP77)	1.04 ± 0.11	1.05 ± 0.018	1.02 ± 0.048	1.05 ± 0.025	1.01 ± 0.05	0.949 ± 0.028
TAOK3 (UniProt Q9H2K8)	1.01 ± 0.056	0.981 ± 0.036	0.984 ± 0.028	0.985 ± 0.05	0.992 ± 0.024	0.996 ± 0.02
EHMT1 (UniProt Q9H9B1)	0.9 ± 0.064	1.06 ± 0.077	1 ± 0.031	1.09 ± 0.12	1.01 ± 0.031	0.999 ± 0.018
UniProt Q9H3Z4 and related entries	0.955 ± 0.1	0.979 ± 0.033	0.948 ± 0.07	0.944 ± 0.025	0.911 ± 0.035	0.893 ± 0.04
UniProt Q9NP50	0.93 ± 0.022	0.96 ± 0.073	0.95 ± 0.035	1 ± 0.1	0.964 ± 0.05	1.03 ± 0.065
UniProt Q9H477 and related entries	1.04 ± 0.076	1 ± 0.078	1.02 ± 0.088	0.984 ± 0.13	1.04 ± 0.047	1.02 ± 0.065
UniProt Q9H6R6 and related entries	0.952 ± 0.099	0.975 ± 0.1	1.1 ± 0.069	0.957 ± 0.18	0.973 ± 0.063	0.978 ± 0.076
MED20 (UniProt Q9H944)	1.01 ± 0.022	0.994 ± 0.018	0.985 ± 0.012	0.954 ± 0.027	0.969 ± 0.028	0.981 ± 0.025
VPS16 (UniProt Q9H269)	1.04 ± 0.12	0.966 ± 0.052	1.01 ± 0.076	0.952 ± 0.094	0.999 ± 0.028	1.01 ± 0.061
COMMD4 (UniProt Q9H0A8)	0.96 ± 0.061	0.967 ± 0.057	0.911 ± 0.0095	0.878 ± 0.067	0.89 ± 0.039	0.95 ± 0.014
UniProt Q9H857 and related entries	1.1 ± 0.21	1.03 ± 0.14	1.04 ± 0.15	0.887 ± 0.19	1.11 ± 0.1	1.02 ± 0.1
UniProt Q9C0E8 and related entries	0.929 ± 0.055	0.959 ± 0.028	0.954 ± 0.025	0.934 ± 0.019	0.937 ± 0.062	0.962 ± 0.029

2 entries picked at random from the list so far:
Target	NP40-soluble protein abundance (concentration: 1mM)	NP40-soluble protein abundance (concentration: 2mM)	NP40-soluble protein abundance (concentration: 4mM)	NP40-soluble protein abundance (concentration: 6mM)	NP40-soluble protein abundance (concentration: 8mM)	NP40-soluble protein abundance (concentration: 10mM)
UniProt Q9H3Z4 and related entries	0.955 ± 0.1	0.979 ± 0.033	0.948 ± 0.07	0.944 ± 0.025	0.911 ± 0.035	0.893 ± 0.04
PLEKHA1 (UniProt Q9HB21)	0.99 ± 0.043	1 ± 0.024	1 ± 0.042	1.01 ± 0.09	0.963 ± 0.024	0.994 ± 0.019
